# PubChem BioAssay AID493014 (National Center for Advancing Translational Sciences (NCATS), 2011)
# The list shows a part of the results. The main result of the screen is listed elsewhere. These columns were measured beside it and carry no call. Compounds called inactive in the main read-out are mostly missing here. Potencies come from curve fits of mixed quality, noted in brackets.
# Assay: qHTS Assay to Find Inhibitors of Chronic Active B-Cell Receptor Signaling
# Details: ABC-DLBCL IkBa-CBG/CBR reporter, luminescence ratio (green luciferase fused to IkBa over red control in TMD8 lymphoma cells), 4 h
# Summary of the method: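 TMD8 human ABC-DLBCL cells with doxycycline-inducible IκBα–green luciferase fusion and unfused red luciferase, in 0.5% FBS medium; compounds up to 46 uM, 4 h at 37C. Green/red luminescence ratio, filter-overlap corrected, fitted to concentration-response curves.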
# [1] = measured here: CBR red luminescence, cell number
# [2] = measured here: IkBa-CBG green luminescence
Structure (SMILES),AC50 [1],AC50 [2]
O=[N+]([O-])c1ccc2nc(-c3ccncc3)[nH]c2c1,"15.8 µM [falling, single point]",–
COc1ccc(-c2cc(C(=O)Nc3c(F)cc(F)cc3Br)no2)cc1,"31.6 µM [falling, single point]",–
O=C(CN1C(=O)NC2(CCCc3ccccc32)C1=O)NCc1cccs1 (stereo not given),"10.3 µM [rising, partial curve]",–
CCCNC(=S)N1CCC(C(=O)c2ccc(F)cc2)CC1,"14.1 µM [rising, partial curve, poor fit]",–
Cc1sc2nc(C3CC3)nc(SCC(=O)NCc3ccco3)c2c1C,"6.31 µM [rising, partial curve, poor fit]",–
CCCN(CCC)C(=O)c1cc(-c2ccc3c(c2)OCO3)nc2ccccc12,"1.84 µM [falling, full curve]","20.6 µM [rising, partial curve, poor fit]"
CC(=O)N1CCN(c2ccccc2NC(=O)c2cc(Br)ccc2Cl)CC1,"0.461 µM [rising, full curve, poor fit]",–
Cc1cc(C)nc(/N=C(\N)N2CCCCC2)n1,"22.4 µM [falling, single point]",–
CSCSC1=C(C#N)C(c2ccccc2Cl)C(C(C)=O)=C(C)N1 (stereo not given),"7.94 µM [falling, partial curve, poor fit]",–
CCCOc1ccc(-c2cn3ccccc3n2)cc1,"8.91 µM [falling, partial curve, poor fit]",–
CC1(C)CC(=O)C(C=NCCN2CCN(C(=O)NC34CC5CC(CC(C5)C3)C4)CC2)=C(O)C1,"6.31 µM [rising, partial curve, poor fit]",–
C[C@H]1CCC(=O)N([C@H](CSc2ccc(Br)cc2)Cc2ccccc2)CC1,"4.61 µM [rising, single point]",–
COC(=O)c1ccc(COc2cccc3c2CCN(Cc2cccc(C)c2)C3=O)o1,"20.6 µM [falling, partial curve]",–
O=C(Nc1nnc(-c2ccccc2)s1)c1ccc(F)cc1,"0.398 µM [falling, full curve, poor fit]",–
Cc1cc(C)cc(OCC(=O)Nc2ccc3c(c2)OCO3)c1,"0.355 µM [rising, full curve]",–
COc1ccc(Cl)cc1NC(=S)NC1CCCC1,"3.98 µM [falling, full curve, poor fit]",–
Cc1ccc2cc(CCNC(=O)c3ccc(Br)o3)c(=O)[nH]c2c1,"11.2 µM [falling, partial curve, poor fit]",–
COc1ccc(OC)c(-c2csc(-c3cccs3)n2)c1,"11.2 µM [rising, partial curve]",–
CCc1c(C)[nH]c(=S)c(C#N)c1C,"35.5 µM [rising, single point]",–
FCCCOc1ccc(-c2ccnc3ncnn23)cc1,"35.5 µM [rising, partial curve, poor fit]",–
Cc1nc(-c2ccccc2)sc1C(=O)/C=C/N(C)C,"28.2 µM [falling, single point]",–

# 2 of these compounds, set out differently:
Structure (SMILES)	AC50 [1]	AC50 [2]
O=C(CN1C(=O)NC2(CCCc3ccccc32)C1=O)NCc1cccs1 (stereo not given)	10.3 µM [rising, partial curve]	–
CCCNC(=S)N1CCC(C(=O)c2ccc(F)cc2)CC1	14.1 µM [rising, partial curve, poor fit]	–

# Following part:

Structure (SMILES),AC50 [1],AC50 [2]
O=C(Cc1ccc(Cl)cc1)Nc1ccccc1N1CCN(C(=O)c2ccccc2)CC1,"35.5 µM [falling, single point]",–
CC1C(c2ccccc2)N(C)C(c2ccccc2)C(C)C1(O)C#Cc1ccccc1 (stereo not given),"11.6 µM [rising, partial curve]",–
CC(Cc1cccs1)NC(=S)Nc1ccc(Cl)c(Cl)c1 (stereo not given),"29.1 µM [falling, single point]",–
CCCOC(=O)C(C)n1c(-c2ccccc2)nc2ccccc2c1=O (stereo not given),"22.4 µM [rising, single point]",–
NC(=O)COC(=O)c1cccc(S(=O)(=O)N2CCN(c3ccc(F)cc3)CC2)c1,"1.12 µM [falling, partial curve, poor fit]",–
COCCNC(=S)N(CCc1c(C)[nH]c2ccc(F)cc12)Cc1cccs1,"35.5 µM [falling, single point]","35.5 µM [rising, partial curve, poor fit]"
Cc1ccc(NC(=O)c2cnc(SCC(=O)N3CCCc4ccccc43)n(C)c2=O)cc1,"0.562 µM [falling, full curve]",–
COC(=O)C1Cc2ccccc2CN1C(=O)CCl (stereo not given),"17.8 µM [falling, single point]",–
CCOC(=O)c1ccc(NC(=S)N2CCCC2c2ccc(OC)c(OC)c2)cc1 (stereo not given),"1.58 µM [rising, partial curve]",–
COCCNC(=O)c1ccc2c(c1)ncn2-c1ccc(C)c(Cl)c1,"3.98 µM [rising, partial curve, poor fit]",–
Cc1c(OCC(=O)NCC(O)c2ccccc2)ccc2c(-c3ccccc3)cc(=O)oc12 (stereo not given),"25.1 µM [falling, single point]",–
CN(Cc1ccccc1)C(=O)c1ccc(NC(=O)C2=CSCCO2)cc1,"35.5 µM [rising, single point]",–
Cn1c(CO)nc2cc(N)ccc21,"3.16 µM [rising, partial curve, poor fit]",–
CCCCc1nc2cc(C(=O)NCc3cn(C)nc3C)ccc2o1,"5.62 µM [falling, full curve]",–
Cc1ccc(/C=C(\C#N)c2nc3ccccc3[nH]2)s1,"3.16 µM [falling, full curve]",–
COc1ccc(C(=O)NCc2cc(C)nc3ccccc23)cc1OC,"35.5 µM [rising, single point]","22.4 µM [falling, single point]"
CCCn1c(SCC(=O)c2c[nH]c3ccccc23)nnc1-c1ccncc1,"13 µM [falling, partial curve]",–
Cc1ccccc1Nc1c(N)c(=O)oc2ccccc12,"13 µM [rising, partial curve, poor fit]","10.3 µM [falling, partial curve]"
COc1ccc(C(c2c(NC(=O)c3ccccc3)sc(C)c2C)N2CCN(CCO)CC2)cc1 (stereo not given),"18.4 µM [falling, partial curve]",–
CCCn1nnc(NC(=O)c2cccc(OCC(C)C)c2)n1,"35.5 µM [falling, single point]",–
